Among all 230,000 compounds or so, about 310 (0.13%) were called active. Inconclusive means that the source gave no clear call. Such entries were picked first, then a sample of the others. Calls come from the whole dose curve; as a rule, active = well fitted activation curve with a large enough effect; inconclusive = small, poorly fitted or top-dose-only effect; inactive = no such curve, though single readings can be large or run the other way. Potencies beside an inconclusive call are fits to weak or partial responses and may not hold up.
Assay: qHTS Multiplex Assay to Identify Dual Action Probes in a Cell Model of Huntington: Cytoprotection (ATP); note: nearly all actives have a fitted effect of over 45% in size;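 for cytoprotection (ATP increase): toxic huntingtin expression switched on by the ecdysone agonist tebufenozide; % of control where 0% means no effect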
Details: PC12 HTT-Q103 induced, ATP luminescence, 40 h; cytoprotection (ATP increase): at 56.4 µM (top of the series) unless noted
Outline: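 Stable PC12 Q103-GFP cells in serum-supplemented, phenol red-free DMEM; induction by tebufenozide at 100 nM final; compound dose series; cell viability quantified luminescently from ATP.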
Potency is the fitted concentration of half-maximal effect.

Compound	Potency	cytoprotection (ATP increase)
CCOC(=O)c1c(C)[nH]c2cc(Br)c(O)cc12	inconclusive: 5620 nM [activator, single point]	
Cc1nc2ncnn2c(Nc2ccc3c(c2)OCO3)c1Cc1ccccc1	inconclusive: 1260 nM [activator, single point]	
CC1CC(Nc2ccccc2)c2ccccc2N1C(=O)c1ccncc1 (configuration not stated)	inconclusive: 35500 nM [activator, single point]	
CN(C)CCCN(C(=O)c1ccco1)c1nc2ccc(F)cc2s1	inconclusive: 398 nM [activator, single point]	
C=CC(=O)OCC(CO)(COC(=O)C=C)COC(=O)C=C	inconclusive: 15800 nM [activator, single point]	
CCCSc1ccc(-c2nn(-c3ccccc3)cc2/C=C(/C#N)C(=O)NCCCOC)cc1	inconclusive: 891 nM [activator, single point]	
S=C(NCCCN1CCOCC1)N1CCOCC1	inconclusive: 794 nM [activator, single point]	
CC(C)NC(=O)N1CC[C@@]2(CCCN(C(=O)c3ccncc3)C2)C1	inconclusive: 6310 nM [activator, partial curve]	
CCOC(=O)C1CCCN(C(=O)/C=C/c2ccc(Cl)cc2)C1 (configuration not stated)		inactive: -94.5%
CCN(CC)S(=O)(=O)c1cccc(C(=O)N[C@@H](C)c2nc3ccccc3[nH]2)c1		inactive: -9.6% [at 10 µM]
Cc1ccc(C(=O)NCCc2ccc(S(N)(=O)=O)cc2)o1	inconclusive: 562 nM [activator, full curve]	
Cc1ccccc1NC(NC(=O)OCCn1c([N+](=O)[O-])cnc1C)C(Cl)(Cl)Cl (configuration not stated)	inconclusive: 1260 nM [activator, single point]	
Cc1cc(C)n(CCOC(=O)c2sc3ccccc3c2Cl)n1	inconclusive: 398 nM [activator, full curve, poor fit]	
COc1ccc(Br)cc1CN(C)CC(=O)Nc1cc(Cl)ccc1Cl	inconclusive: 1120 nM [activator, partial curve]	
CC(Sc1ccc(Cl)cc1)C(=O)Nc1ccccc1-c1ccccc1 (configuration not stated)	inconclusive: 2820 nM [activator, single point]	
NS(=O)(=O)c1cc2c(cc1Cl)N[C@@H]([C@@H]1C[C@@H]3C=C[C@H]1C3)NS2(=O)=O	inconclusive: 39800 nM [activator, single point]	
O=C(NCCCn1ccnc1)/C(=C/c1ccco1)NC(=O)c1cccs1		inactive: -31.7%
CC(C)CN1CC[C@@]2(CCCN(C(=O)c3csnn3)C2)C1	inconclusive: 3160 nM [activator, full curve, poor fit]	
O=C(CSc1nc(Nc2ccccc2)nc(N2CCOCC2)n1)N1CCCC1	inconclusive: 3160 nM [activator, single point]	
CCN1C(=O)[C@H]2[C@H]3[C@H](O)[C@H](O)C/C(=N/OC/C=C(\C)CCC=C(C)C)[C@@H]3CC[C@@H]2C1=O	inconclusive: 794 nM [activator, single point]	
CC(C)=CCC/C(C)=C/CO/N=C1/C[C@@H](O)[C@@H](O)[C@@H]2[C@@H]3C(=O)N(Cc4ccc5c(c4)OCO5)C(=O)[C@H]3CC[C@H]12	inconclusive: 5620 nM [activator, single point]	

Compound	Potency	cytoprotection (ATP increase)
c1ccc(-n2nnnc2NCCc2c[nH]c3ccccc23)cc1	inconclusive: 708 nM [activator, partial curve]	
CCC(CC)NC(=O)c1cccc(Oc2ccccc2)c1	inconclusive: 1260 nM [activator, single point]	
COc1ccccc1-c1cncnc1Nc1ccccc1	inconclusive: 25100 nM [activator, single point]	
COCOc1cc(OC)ccc1C(=O)/C=C/c1ccc2c(c1)OCO2	inconclusive: 3980 nM [activator, single point]	
CCOc1ccccc1OCCOCCOc1c(Cl)cccc1Cl		inactive: -3.5% [at 10 µM]
CC(C)(C)OC(=O)C1=NOC2(C=CC(=O)C=C2)C1	inactive	
COC(=O)c1c(C)[nH]c(C(=O)N2CCN(c3ccc(OC)cc3)CC2)c1C		inactive: -45.2% [at 10 µM]
COC(=O)C(O)C1C(C)(C)C(OC(C)=O)C2CC3=C4CC(=O)OC(c5ccoc5)[C@]4(C)CCC3[C@@]1(C)C2=O (some centres not stated)	inconclusive: 2510 nM [activator, partial curve]	
C=C1CCC2[C@](C)(CO)[C@H](O)CC[C@@]2(C)[C@@H]1C/C=C1/C(=O)OC[C@H]1O (some centres not stated)	active: 7080 nM	
COCCn1c(=O)[nH]c2cc(C(=O)NCCc3ccc(S(N)(=O)=O)cc3)ccc2c1=O	inconclusive: 708 nM [activator, single point]	
COc1ccc(C(=O)NCCN2C(=O)S/C(=C\c3cccnc3)C2=O)cc1[N+](=O)[O-]		inactive: -2.99% [at 10 µM]
CCOc1ccc2nc(Nc3nc4c(c(=O)[nH]3)CCC4)nc(C)c2c1		inactive: -5.06%
O=c1c2ccccc2sn1-c1ccccc1		inactive: -56.7%
Cc1cc2nc(-c3ccco3)cc(C(F)(F)F)n2n1		inactive: 3.44% [at 10 µM]
CC12CCC(C[N+](C)(CCC[N+](C)(C)C)C1)C2(C)C (configuration not stated)		inactive: -1.24%
O=C(Nc1ccccc1)c1cc2ccccc2o1	inconclusive: 1260 nM [activator, single point]	
COc1cc(C)c(NC(=S)Nc2ccc(Cl)c(Cl)c2)cc1OC	inconclusive: 1260 nM [activator, single point]	
COc1ccc(N2CCN(CCCNC(=O)C3CCN(S(=O)(=O)N4CCOCC4)CC3)CC2)cc1	inconclusive: 5620 nM [activator, single point]	
CCOc1ccc(CNC2CCCc3ccccc32)cc1 (configuration not stated)	inconclusive: 1260 nM [activator, single point]	
COc1ccccc1C1=NNC(=Nc2cccc(S(=O)(=O)N(C)C)c2)SC1	inconclusive: 31600 nM [activator, single point]	
CCOc1ccc(CC(=O)N2CCN=C2SCc2ccc([N+](=O)[O-])cc2)cc1	inconclusive: 14100 nM [activator, single point]	
